“Also recorded” adds a separate entry of the source. At least one structure is not confirmed: it was looked up by name or label, or the drawing left a doubt. Some entries repeat one wording, which the source may state once for all of them. Residues, ends and D or L forms follow the SMILES beside them.
How the values were obtained:
[1] = biological target: T1, FL_Reg1 (full-length human Regnase-1) phosphorylation by IKKβ (Homo sapiens, UniProt Q5D1E8); test: Regnase-1 phosphorylation inhibition by compounds (AlphaScreen), IKKβ, full-length Regnase-1; assay type: biochemical; details: concentration-dependent
T1 construct: made in house; host or cells: Expi293 cells
T1 sequence (Q5D1E8 1-599): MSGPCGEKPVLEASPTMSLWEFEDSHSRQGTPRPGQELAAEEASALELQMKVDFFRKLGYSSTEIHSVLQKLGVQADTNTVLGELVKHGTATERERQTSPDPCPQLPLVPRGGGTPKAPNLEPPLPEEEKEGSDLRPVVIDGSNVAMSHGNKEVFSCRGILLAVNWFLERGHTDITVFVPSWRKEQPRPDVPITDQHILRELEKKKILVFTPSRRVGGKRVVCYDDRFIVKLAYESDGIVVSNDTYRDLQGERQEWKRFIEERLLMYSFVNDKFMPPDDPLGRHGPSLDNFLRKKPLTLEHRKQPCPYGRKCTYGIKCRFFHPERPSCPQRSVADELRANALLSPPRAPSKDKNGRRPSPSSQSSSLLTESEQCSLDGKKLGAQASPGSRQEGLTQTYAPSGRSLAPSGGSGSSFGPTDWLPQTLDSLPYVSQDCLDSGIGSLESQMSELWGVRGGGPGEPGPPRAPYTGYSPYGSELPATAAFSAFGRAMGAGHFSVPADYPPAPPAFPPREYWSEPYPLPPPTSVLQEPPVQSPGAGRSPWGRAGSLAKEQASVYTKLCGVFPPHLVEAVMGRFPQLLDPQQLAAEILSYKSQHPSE
Method in brief: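 FLAG/BirA-tagged human Regnase-1 constructs (full-length, 1–546 or 301–599), expressed in Expi293 cells, were used at 2 nM with compound and phosphorylated by IKKβ or TBK1 with 10 μM ATP, DTT, vanadate and MnCl2 for 2 h at room temperature. Phospho-Regnase-1 was read by AlphaScreen; IC50 came from % inhibition curves normalised to DMSO and Regnase-1-alone signals.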

[2] = biological target: T2, binding between TBK1 and full-length Regnase-1 (FL_Reg1) (Homo sapiens, UniProt Q5D1E8); test: Inhibition of kinase-Regnase-1 binding by the compounds (AlphaScreen), TBK1
T2 construct: made in house; host or cells: Expi293 cells
T2 sequence (Q5D1E8 1-599): T1 sequence (Q5D1E8 1-599)
Experimental: As a target protein, a construct having a FLAG tag on the N-terminal side and a recognition sequence for biotin ligase BirA on the C-terminal side of the full-length sequence of human Regnase-1 (UniProt ID: Q5D1E8) was prepared (FL_Reg1). The above-mentioned Regnase-1 was expressed in mammalian Expi293 cells, purified with FLAG M2 agarose, and isolated by gel filtration chromatography. When biotinylation was required, methods from nonpatent documents (BMC biotechnology, 2008,8,41; and Protein Science, 1999,8,921-929) were used.
After mixing 2.5 nM of the above-mentioned Regnase-1 and the compound, 2.5 nM of IKKβ or TBK1 was added and reacted at room temperature for two hours. Then, Anti FLAG AlphaLISA Acceptor Beads (manufactured by PerkinElmer) and Glutathione-coated AlphaScreen Donor Beads (manufactured by PerkinElmer) were added, and excited luminescence was measured using En Vision (manufactured by PerkinElmer). As the results, the inhibition rate from the signals obtained when adding the compound at each concentration were calculated, by defining the signal obtained with Regnase-1 alone to be 100% inhibition rate, and the signal obtained when the same amount of solvent (DMSO) is added in place of the compound as 0% inhibition rate. The 50% inhibition concentration (μM) was calculated from the obtained dose response curve (Table 12).

[3] = biological target: T3, FL_Reg1 (Homo sapiens, UniProt Q5D1E8); test: Binding of Regnase-1 and peptide compounds (affinity mass analysis, SEC then LC/MS); details: 1 μM FL_Reg1, final compound concentration 1 μM, 23° C. for one hour
T3 construct: made in house; host or cells: Expi293 cells
T3 sequence (Q5D1E8 1-599): T1 sequence (Q5D1E8 1-599)
Experimental: To a 96 PP plate (Greiner bio-one, 651201) coated with lipidure (Lipidure-CM5206) (NOF CORPORATION, 71S42000001), 2 μL of Tris-Buffer (25 mM Tris-NaOH pH 8.3, 300 mM NaCl, 1 mM DTT, 1 mM EDTA, 1% DMSO) was dispensed, and then 1 mM DMSO sample was added at 20 nL each with a LABCYTE ECHO (registered trademark) acoustic dispensing system. Furthermore, 18 μL of protein prepared at 1 μM FL_Reg1 in advance using Tris-Buffer was added (final compound concentration: 1 μM), and the mixture was incubated in the dark at 23° C. for one hour. Then, to a 96-well, 400 μL, Hydrophilic PVDF 0.45 μm, Long drip (Harvard, 74-5556), 100 μL of P-2, Fine (Bio-Rad, 1504114) which had been swollen in advance was added, and conditioning was performed by centrifuging several times at 2000× G for two minutes using the buffer. Next, 20 μL of the sample after incubation was added to the conditioned 96-well, 400 μL, Hydrophilic PVDF 0.45 μm, Long drip, and SEC treatment was performed by centrifugation at 2000×G for two minutes. To the liquid from SEC, 32 μL of acetonitrile (LC/MS grade, FUJIFILM Wako Pure Chemical Industries, Ltd.) supplemented with 0.1% formic acid (LC/MS grade, 067-04531, FUJIFILM Wako Pure Chemical Industries, Ltd.) was added, and this was centrifuged at 1800×G for five minutes, and the supernatant was used as an analysis sample for LC/MS measurement. Binding to Regnase-1 was detected for all of the peptide compounds, PP1 to PP25.

| Compound | inhibition of phosphorylation of full-length Regnase-1 (FL_Reg1) by IKKβ, in words [1] | inhibition of binding of Regnase-1 (FL_Reg1) to TBK1, in words [2] | AS-MS ratio(%) [3] [%] |
| --- | --- | --- | --- |
| CC[C@H](C)[C@@H]1NC(=O)[C@H](CCCNC(=N)N)NC(=O)[C@H](Cc2ccc(O)cc2)NC(=O)[C@H](Cc2c[nH]c3ccccc23)NC(=O)[C@H](C)NC(=O)[C@H](CO)NC(=O)[C@H](C)NC(=O)[C@H](Cc2c[nH]cn2)NC(=O)[C@H](CCCCN)NC(=O)[C@@H](C)N(C)C(=O)C[C@@H](C(=O)N2CCCC2)NC(=O)[C@H](Cc2c[nH]c3ccccc23)NC1=O [PP3] (HELM PEPTIDE1{[C[C@H](C(=O)[*:2])N(C)[*:1]].K.H.A.S.A.W.Y.R.I.W.D.[C1CCN([*:1])C1]}$PEPTIDE1,PEPTIDE1,1:R1-12:R3$$$V2.0) | inhibited phosphorylation; also recorded: all showed inhibitory activity | inhibited the binding | 1.2 |
| CC[C@H](C)[C@@H]1NC(=O)[C@H](CCCCN)NC(=O)[C@H](Cc2ccccc2)NC(=O)[C@H](Cc2c[nH]c3ccccc23)NC(=O)[C@H](CO)NC(=O)[C@H](CO)NC(=O)[C@H](CC(N)=O)NC(=O)[C@@H]2CCCN2C(=O)[C@@H](C)N(C)C(=O)C[C@@H](C(=O)N2CCCC2)NC(=O)[C@H](Cc2c[nH]c3ccccc23)NC1=O [PP6] (HELM PEPTIDE1{[C[C@H](C(=O)[*:2])N(C)[*:1]].P.N.S.S.W.F.K.I.W.D.[C1CCN([*:1])C1]}$PEPTIDE1,PEPTIDE1,1:R1-11:R3$$$V2.0) | inhibited phosphorylation; also recorded: all showed inhibitory activity | inhibited the binding | 6.4 |
| CC(C)[C@@H]1NC(=O)[C@H](CCCCN)NC(=O)[C@H](Cc2ccc(O)cc2)NC(=O)[C@H](Cc2c[nH]c3ccccc23)NC(=O)[C@H](CO)NC(=O)[C@H]([C@@H](C)O)NC(=O)[C@H](C)N(C)C(=O)C[C@@H](C(=O)N2CCCC2)NC(=O)[C@H](CCC(N)=O)NC(=O)CNC(=O)[C@H](Cc2c[nH]c3ccccc23)NC(=O)[C@H](CC(N)=O)NC1=O [PP1] (HELM PEPTIDE1{[meA].T.S.W.Y.K.V.N.W.G.Q.D.[C1CCN([*:1])C1]}$PEPTIDE1,PEPTIDE1,1:R1-12:R3$$$V2.0) | inhibited phosphorylation; also recorded: all showed inhibitory activity | did not | 21.8 |
| CC[C@H](C)[C@@H]1NC(=O)[C@H](CC(N)=O)NC(=O)[C@H](Cc2ccc(O)cc2)NC(=O)[C@H](Cc2c[nH]c3ccccc23)NC(=O)[C@H](CO)NC(=O)[C@H](CC(N)=O)NC(=O)[C@H](C)NC(=O)[C@H](Cc2ccc(O)cc2)NC(=O)CNC(=O)[C@H](C)N(C)C(=O)C[C@@H](C(=O)N2CCCC2)NC(=O)[C@H](Cc2c[nH]c3ccccc23)NC1=O [PP2] (HELM PEPTIDE1{[meA].G.Y.A.N.S.W.Y.N.I.W.D.[C1CCN([*:1])C1]}$PEPTIDE1,PEPTIDE1,1:R1-12:R3$$$V2.0) | inhibited phosphorylation; also recorded: all showed inhibitory activity | inhibited the binding | 14.2 |
| CC[C@H](C)[C@@H]1NC(=O)[C@H](CC(N)=O)NC(=O)[C@H](Cc2ccc(O)cc2)NC(=O)[C@H](Cc2c[nH]c3ccccc23)NC(=O)[C@H](C)NC(=O)[C@H](CC(N)=O)NC(=O)[C@H](CO)NC(=O)[C@H](Cc2c[nH]cn2)NC(=O)[C@H](C)N(C)C(=O)C[C@@H](C(=O)N2CCCC2)NC(=O)[C@H](Cc2c[nH]c3ccccc23)NC1=O [PP5] (HELM PEPTIDE1{[meA].H.S.N.A.W.Y.N.I.W.D.[C1CCN([*:1])C1]}$PEPTIDE1,PEPTIDE1,1:R1-11:R3$$$V2.0) | inhibited phosphorylation; also recorded: all showed inhibitory activity | inhibited the binding | 20.8 |

From patent publication US20250018014A1, “METHOD FOR TREATING AND/OR PREVENTING REGNASE-1-RELATED DISEASE” (OSAKA UNIVERSITY, priority 2018, published 2025)
